Values from PubChem BioAssay AID1224826 (NIAID, 2016)

Assay: 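Genes that change LPS-induced Tnf promoter activity in mouse macrophages when knocked down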 (primary screen)
System: RAW264.7 G9 macrophages from mouse bearing reporters for p65 (GFP) and the Tnf promoter (mCherry)
Reagent: siRNA pool against mouse genes, 100 nM
Timing: 16 h of LPS stimulation, after 2 days of siRNA transfection
Treatment: bacterial lipopolysaccharide (Salmonella minnesota R595), 10 ng/ml
Detection: 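Nuclear mCherry signal of the Tnf promoter reporter measured by imaging after background removal, scaled to each plate median and turned into robust z-scores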
Scale: Tnf reporter robust z-score: higher = stronger Tnf promoter reporter signal after LPS
Rule for the call: 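Called active when robust z-score is at most -1.3, matching the median of the Tlr4 knock-down control, or over 3; control wells and wells with under 50 cells never active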
Calls: active = Tnf reporter clearly lowered or raised; inactive = no clear change in Tnf reporter
The whole screen tested about 17,000 reagents; this is a random part of them. About 1,110 of them (6.6%) were called active. 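Active means lowered or raised reporter signal; replicate intensities are raw and not normalised per plate.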 Entries without a mark were called inactive. Not all columns of the deposit are shown.

How did the screen score Mterf2 (GeneID 74238)?
Tnf reporter robust z-score: -0.19; fewer than 50 cells in well: enough cells in well

For Serpina1a (GeneID 20700), what was measured?
Tnf reporter robust z-score: -0.35; fewer than 50 cells in well: enough cells in well

For Dym (GeneID 69190), how do the results read?
Tnf reporter robust z-score: 0.83; fewer than 50 cells in well: enough cells in well

For Ccnd1 (GeneID 12443), what does the deposit list?
Tnf reporter robust z-score: -0.43; fewer than 50 cells in well: enough cells in well

With Wfdc21 (GeneID 66107), what does the deposit list?
Tnf reporter robust z-score: 2.77; fewer than 50 cells in well: enough cells in well

With Rab3gap1 (GeneID 226407), what does the deposit list?
fewer than 50 cells in well: fewer than 50 cells per well; well left out of calls

What did the screen give for Slc16a8 (GeneID 57274)?
Tnf reporter robust z-score: 3.71 (active); fewer than 50 cells in well: enough cells in well

For Rbp7 (GeneID 63954), what was measured?
Tnf reporter robust z-score: -0.23; fewer than 50 cells in well: enough cells in well

Only “fewer than 50 cells in well”, for 2 of the entries above:
Wfdc21 (GeneID 66107) = enough cells in well
Rab3gap1 (GeneID 226407) = fewer than 50 cells per well; well left out of calls

The listing continues.
With Fitm1 (GeneID 68680), what was measured?
Tnf reporter robust z-score: 1.03; fewer than 50 cells in well: enough cells in well

How did the screen score Cyp2c40 (GeneID 13099)?
Tnf reporter robust z-score: -0.07; fewer than 50 cells in well: enough cells in well

How did the screen score Cers2 (GeneID 76893)?
Tnf reporter robust z-score: 0.23; fewer than 50 cells in well: enough cells in well

What is on record for Rilpl2 (GeneID 80291)?
Tnf reporter robust z-score: 1.03; fewer than 50 cells in well: enough cells in well
